Measured values as given in PubChem BioAssay AID2104 (National Center for Advancing Translational Sciences (NCATS), 2009).
This list was built around the results that the source calls inconclusive (neither active nor inactive); the mix of calls is not that of the screen. Where the call is inconclusive, the potency comes from a doubtful curve fit. Calls of active or inactive are those of the source. Calls follow the shape of the full dose curve.

Sequences of proteins named here, by UniProt entry; tags and fusion partners are left off.
UniProt P16473, whole entry, looked up: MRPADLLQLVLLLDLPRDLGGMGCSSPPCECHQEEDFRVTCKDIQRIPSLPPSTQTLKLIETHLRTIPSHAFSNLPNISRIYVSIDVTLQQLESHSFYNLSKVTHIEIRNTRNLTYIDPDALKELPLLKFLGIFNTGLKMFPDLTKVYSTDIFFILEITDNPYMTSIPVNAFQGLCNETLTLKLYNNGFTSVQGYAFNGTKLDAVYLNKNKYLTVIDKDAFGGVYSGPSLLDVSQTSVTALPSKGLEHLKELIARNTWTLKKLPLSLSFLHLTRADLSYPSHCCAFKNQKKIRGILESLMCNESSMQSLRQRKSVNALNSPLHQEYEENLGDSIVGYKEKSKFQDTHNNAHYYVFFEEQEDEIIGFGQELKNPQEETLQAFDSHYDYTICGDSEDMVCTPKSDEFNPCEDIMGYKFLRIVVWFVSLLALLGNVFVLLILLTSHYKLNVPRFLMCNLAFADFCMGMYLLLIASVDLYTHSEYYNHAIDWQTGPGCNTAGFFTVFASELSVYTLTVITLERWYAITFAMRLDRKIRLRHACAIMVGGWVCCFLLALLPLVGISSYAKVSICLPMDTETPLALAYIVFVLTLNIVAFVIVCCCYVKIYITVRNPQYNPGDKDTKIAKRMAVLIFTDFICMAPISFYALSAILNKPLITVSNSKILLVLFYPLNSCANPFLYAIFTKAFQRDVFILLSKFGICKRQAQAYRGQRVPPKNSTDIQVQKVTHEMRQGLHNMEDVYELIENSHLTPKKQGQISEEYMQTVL

Target: Thyrotropin receptor (Homo sapiens) (UniProt P16473)
Test: Secondary Concentration-Response Assay for Agonists of the Thyroid Stimulating Hormone Receptor: ELISA Activity Detection
Settings: HEK293-TSHR cells, cAMP ELISA luminescence, 1 h
Excerpt: NIH Chemical Genomics Center [NCGC] NIH Molecular Libraries Screening Centers Network [MLSCN] MLSCN Grant: 1 X01 MH080680-01 PI Name: Dr. Marvin Gershengorn, NIH NCGC Assay Overview: Confirmation of Thyroid Stimulating Hormone Receptor Agonists TSH is an alpha/beta heterodimeric glycoprotein hormone secreted from the anterior pituitary gland which belongs to the glycoprotein hormone family. The actions of TSH are mediated by a seven-transmembrane receptor, which upon TSH binding couples preferentially to the G-alpha (s) protein (Gs), resulting in activation of adenylate cyclase and increase in cyclic adenosine 3', 5' monophosphate (cAMP). The TSH receptor (THSR) is mainly expressed in thyroid follicular cells and regulates their growth and function. Recombinant TSH is used to activate TSHR in patients with thyroid cancer receiving thyroid hormone suppression therapy and to screen for residual tumor after surgery, but it is expensive and must be administered intramuscularly. An orally active small molecule TSHR agonist would serve as an invaluable research tool for studying TSHR pharmacology and physiology, and would have multiple advantages in therapeutic settings. However, no selective small molecule agonist of the TSH receptor exists, and no small molecule screen for TSHR agonists has ever been reported. A confirmatory assay of putative TSHR agonists was conducted on a HEK 293 cell line stably expressing the TSHR, using an orthogonal detection technology to measure cAMP stimulation: an ELISA based cAMP competition assay using cAMP-Screen Direct System (Applied Biosystems, Foster City , CA).
NCGC Assay Protocol Summary: HEK 293 cells expressing TSHR were cultured for 24 h before incubation for 1 h in serum-free DMEM containing 1 mM 3-isobutyl-1-methylxanthine (IBMX) (SIGMA) and small molecule ligands in a humidified 5% CO2 incubator at 37C. Following aspiration of the medium, cells were lysed using lysis buffer of the cAMP-Screen DirectTM System (Applied Biosystems). The cAMP content of the cell lysate was determined using the method described in the manufacturer#s protocol. An enzyme substrate with a luminescent enhancer generates glow light emission kinetics. Light signal intensity, which is inversely proportional to the cAMP level in the sample, is measured in a luminometer (Perkin Elmer, 1420 Multilabel, Victor 3) for 3 seconds/well 30 min after substrate addition. Potencies (i.e., EC50) of the ligands were obtained from dose-response curves by data analysis with GraphPad Prism 4 software for Windows.

Structure (SMILES)	Potency	outcome
COc1ccc(C2Nc3ccccc3C(=O)N2Cc2ccco2)cc1COc1ccc(NC(C)=O)cc1 (configuration not stated)	inconclusive: 1.16 µM	–
COc1ccc(C2Nc3cccc(O)c3C(=O)N2Cc2ccccc2)cc1 (configuration not stated)	–	inactive
COc1ccc(C2Nc3ccccc3C(=O)N2Cc2ccccc2)cc1COc1cccc(F)c1 (configuration not stated)	–	inactive
COc1ccc(C2Nc3c(OC)ccc(OC)c3C(=O)N2Cc2ccccc2)cc1COc1ccc(NC(C)=O)cc1 (configuration not stated)	inconclusive: 2.69 µM	–
COc1ccc(C2Nc3ccccc3C(=O)N2Cc2ccccc2)cc1COc1cccc(NC(C)=O)c1 (configuration not stated)	inconclusive: 4.34 µM	–
COc1ccc(C2Nc3ccccc3C(=O)N2c2ccccc2)cc1COc1ccc(NC(C)=O)cc1 (configuration not stated)	inconclusive: 5.09 µM	–
COc1ccc(C2Nc3cccc(OC)c3C(=O)N2Cc2ccccc2)cc1COc1ccc(NC(C)=O)cc1 (configuration not stated)	inconclusive: 4.48 µM	–
COc1ccc(C2NC(=O)c3ccccc3N2)cc1COc1ccc(NC(C)=O)cc1 (configuration not stated)	–	inactive
COc1ccc(C2Nc3ccccc3C(=O)N2Cc2ccco2)cc1COc1ccccc1 (configuration not stated)	–	inactive
COc1ccc(C2Nc3cccc(N)c3C(=O)N2Cc2ccccc2)cc1COc1ccc(NC(C)=O)cc1 (configuration not stated)	inconclusive: 3.78 µM	–
COc1ccc(C2Nc3ncccc3C(=O)N2Cc2cccnc2)cc1COc1ccc(NC(C)=O)cc1 (configuration not stated)	inconclusive: 14.9 µM	–
COc1ccc(C2Nc3ccccc3C(=O)N2Cc2ccncc2)cc1COc1ccc(NC(C)=O)cc1 (configuration not stated)	inconclusive: 3.98 µM	–
COc1ccc(C2Nc3ccccc3C(=O)N2Cc2ccccc2)cc1COc1ccc(C#N)cc1 (configuration not stated)	–	inactive
COc1ccc(OCc2cc(C3Nc4ccccc4C(=O)N3Cc3ccccc3)ccc2OC)cc1 (configuration not stated)	inconclusive: 2.16 µM	–
COc1ccc(-c2nc3cccc(O)c3c(=O)n2Cc2ccccc2)cc1COc1ccc(NC(C)=O)cc1	active: 0.55 µM	–
COCc1cc(C2Nc3ccccc3C(=O)N2Cc2ccccc2)ccc1OC (configuration not stated)	–	inactive
COc1ccc(C2Nc3cccc(O)c3C(=O)N2Cc2ccccc2)cc1CSc1ccc(NC(C)=O)cc1 (configuration not stated)	active: 0.018 µM	–
CC(=O)Nc1ccc(OCc2cccc(C3Nc4ccccc4C(=O)N3Cc3ccccc3)c2)cc1 (configuration not stated)	inconclusive: 1.86 µM	–
CCCCN1C(=O)c2ccccc2NC1c1ccc(OC)c(COc2ccc(NC(C)=O)cc2)c1 (configuration not stated)	active: 0.83 µM	–
COc1ccc(C2Nc3ccccc3C(=O)N2CCO)cc1COc1ccc(NC(C)=O)cc1 (configuration not stated)	–	inactive
COc1ccc(C2Nc3ccccc3C(=O)N2Cc2ccccc2)cc1COc1ccccc1 (configuration not stated)	inconclusive: 2.57 µM	–
COc1ccc(C2Nc3cccc(NS(C)(=O)=O)c3C(=O)N2Cc2ccccc2)cc1COc1ccc(NC(C)=O)cc1 (configuration not stated)	active: 0.98 µM	–

Another view of four compounds above.
Structure (SMILES),Potency,outcome
COc1ccc(C2Nc3ccccc3C(=O)N2Cc2ccco2)cc1COc1ccccc1 (configuration not stated),–,inactive
COc1ccc(C2Nc3cccc(N)c3C(=O)N2Cc2ccccc2)cc1COc1ccc(NC(C)=O)cc1 (configuration not stated),inconclusive: 3.78 µM,–
COc1ccc(C2Nc3ncccc3C(=O)N2Cc2cccnc2)cc1COc1ccc(NC(C)=O)cc1 (configuration not stated),inconclusive: 14.9 µM,–
COc1ccc(C2Nc3ccccc3C(=O)N2Cc2ccncc2)cc1COc1ccc(NC(C)=O)cc1 (configuration not stated),inconclusive: 3.98 µM,–
